No constants are given. Whether binding was seen depends on the method and setting. Binding seen in cells or lysates may run through a third protein. Some results given as binding are weak or reduced against the parent protein; the word gives no strength.
Target: human CD40 (human) (UniProt P25942)
Assay: co-IP; 2x10^7 CH12.TRAF3+/+ or CH12.TRAF3-/- mouse B cells expressing hCD40 incubated in 1 ml BCM10 for 10 min at 37°C with protein G magnetic beads coated (DSS-conjugated) with anti-hCD40 G28.5 or control MOPC-21 Ab; beads and cells pelleted and lysed; hCD40 immunoprecipitated with the same beads; Western blot

Sequences of proteins named here, by UniProt entry; tags and fusion partners are left off. Residues count along the entry.
UniProt P25942, residues 21-277: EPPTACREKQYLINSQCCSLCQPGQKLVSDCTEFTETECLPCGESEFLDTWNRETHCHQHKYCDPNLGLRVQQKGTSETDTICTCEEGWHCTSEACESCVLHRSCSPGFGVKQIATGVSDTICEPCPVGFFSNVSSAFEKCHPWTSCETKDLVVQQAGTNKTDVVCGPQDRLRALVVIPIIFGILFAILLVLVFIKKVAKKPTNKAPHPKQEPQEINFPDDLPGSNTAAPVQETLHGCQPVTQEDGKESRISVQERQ

B1: TRAF6 (protein, UniProt P70196 1-530)
chain: MSLLNCENSCGSSQSSSDCCAAMAASCSAAVKDDSVSGSASTGNLSSSFMEEIQGYDVEFDPPLESKYECPICLMALREAVQTPCGHRFCKACIIKSIRDAGHKCPVDNEILLENQLFPDNFAKREILSLTVKCPNKGCLQKMELRHLEDHQVHCEFALVNCPQCQRPFQKCQVNTHIIEDCPRRQVSCVNCAVSMAYEEKEIHDQSCPLANIICEYCGTILIREQMPNHYDLDCPTAPIPCTFSVFGCHEKMQRNHLARHLQENTQLHMRLLAQAVHNVNLALRPCDAASPSRGCRPEDPNYEETIKQLESRLVRQDHQIRELTAKMETQSMYVGELKRTIRTLEDKVAEMEAQQCNGIYIWKIGNFGMHLKSQEEERPVVIHSPGFYTGRPGYKLCMRLHLQLPTAQRCANYISLFVHTMQGEYDSHLPWPFQGTIRLTILDQSEALIRQNHEEVMDAKPELLAFQRPTIPRNPKGFGYVTFMHLEALRQGTFIKDDTLLVRCEVSTRFDMGGLRKEGFQPRSTDAGV
binding: binds
